Data source: PubChem BioAssay AID504774 (Drosophila RNAi Screening Center, 2011)
The deposit covers about 23,000 reagents; below is a random part of those that have a named target and a result. 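Values are quantile-normalised luminescence on an arbitrary scale; higher means more cells surviving MMS.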 A plus sign joins genes that one reagent is predicted to hit. Further read-outs or replicates are left out here.

Assay: 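Genes required for cells to withstand methyl methanesulphonate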 (primary screen)
Cell system: Drosophila Kc167 cells
Reagents: long dsRNA against Drosophila genes, about 0.25 µg dsRNA per well
Duration: about 6 days: 3 days knock-down, then 3 days with or without MMS
Challenge: methyl methanesulphonate 0.004% (w/v) for 3 days after knock-down
Measurement: 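Viability in wells given MMS, read as ATP luminescence, normalised by quantiles plate by plate and averaged across replicates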
Scale: mean viability with MMS and viability with MMS: higher = more surviving cells after MMS

{"gene":"Obp57c + Obp57b","dsRNA":"DRSC21914","mean viability with MMS":3.49e6,"viability with MMS, replicate 1":4.01e6}
{"gene":"CG2129","dsRNA":"DRSC18209","mean viability with MMS":3.48e6,"viability with MMS, replicate 1":3.90e6}
{"gene":"CG14569","dsRNA":"DRSC11730","mean viability with MMS":3.50e6,"viability with MMS, replicate 1":4.16e6}
{"gene":"Hmgcl (3-Hydroxymethyl-3-methylglutaryl-CoA lyase)","dsRNA":"DRSC02051","mean viability with MMS":3.59e6,"viability with MMS, replicate 1":4.11e6}
{"gene":"slpr (slipper)","dsRNA":"DRSC18225","mean viability with MMS":3.58e6,"viability with MMS, replicate 1":4.06e6}
{"gene":"slpr (slipper)","dsRNA":"DRSC23321","mean viability with MMS":3.53e6,"viability with MMS, replicate 1":4.04e6}
{"gene":"CG33268","dsRNA":"DRSC10143","mean viability with MMS":3.46e6,"viability with MMS, replicate 1":3.86e6}
{"gene":"CG31068","dsRNA":"DRSC13820","mean viability with MMS":3.61e6,"viability with MMS, replicate 1":4.16e6}
{"gene":"Fancl","dsRNA":"DRSC14550","mean viability with MMS":3.69e6,"viability with MMS, replicate 1":4.22e6}
{"gene":"CG5446","dsRNA":"DRSC02862","mean viability with MMS":3.66e6,"viability with MMS, replicate 1":4.02e6}
{"gene":"ND-MWFE (NADH dehydrogenase (ubiquinone) MWFE subunit)","dsRNA":"DRSC06364","mean viability with MMS":3.60e6,"viability with MMS, replicate 1":3.92e6}
{"gene":"CG3191","dsRNA":"DRSC18530","mean viability with MMS":3.64e6,"viability with MMS, replicate 1":4.18e6}
{"gene":"CG12420","dsRNA":"DRSC14514","mean viability with MMS":3.67e6,"viability with MMS, replicate 1":4.15e6}
{"gene":"RluA-1 (RluA pseudouridine synthase 1)","dsRNA":"DRSC02240","mean viability with MMS":3.51e6,"viability with MMS, replicate 1":3.86e6}
{"gene":"RluA-1 (RluA pseudouridine synthase 1)","dsRNA":"DRSC03060","mean viability with MMS":3.48e6,"viability with MMS, replicate 1":4.00e6}
{"gene":"CG3280 (retired record)","dsRNA":"DRSC10356","mean viability with MMS":3.54e6,"viability with MMS, replicate 1":3.93e6}
{"gene":"CG12104","dsRNA":"DRSC08254","mean viability with MMS":3.85e6,"viability with MMS, replicate 1":4.34e6}
{"gene":"Tudor-SN (Tudor staphylococcal nuclease)","dsRNA":"DRSC08581","mean viability with MMS":3.44e6,"viability with MMS, replicate 1":3.87e6}
{"gene":"CG5435","dsRNA":"DRSC02860","mean viability with MMS":3.68e6,"viability with MMS, replicate 1":4.12e6}
{"gene":"Hsc70-4 (Heat shock protein 70 cognate 4)","dsRNA":"DRSC16711","mean viability with MMS":3.11e6,"viability with MMS, replicate 1":3.55e6}
{"gene":"CG10444","dsRNA":"DRSC05990","mean viability with MMS":3.55e6,"viability with MMS, replicate 1":4.03e6}
{"gene":"cyp33 (cyclophilin-33)","dsRNA":"DRSC07600","mean viability with MMS":3.61e6,"viability with MMS, replicate 1":4.09e6}
{"gene":"pzg (putzig)","dsRNA":"DRSC11848","mean viability with MMS":3.14e6,"viability with MMS, replicate 1":3.65e6}
{"gene":"tow (target of wingless)","dsRNA":"DRSC10192","mean viability with MMS":2.82e6,"viability with MMS, replicate 1":3.46e6}
{"gene":"tow (target of wingless)","dsRNA":"DRSC23125","mean viability with MMS":3.59e6,"viability with MMS, replicate 1":4.21e6}
